Reference: doi:10.1101/2023.04.03.535445 (bioRxiv, 2023)

Tests used:
[1] = target: glycosomal malate dehydrogenase (MDH, residues 1-323) of Trypanosoma cruzi (Trypanosoma cruzi) (UniProt Q4DRD8); experiment: SEC
[2] = target: glycosomal malate dehydrogenase (MDH, residues 1-323) of Trypanosoma cruzi (Trypanosoma cruzi) (UniProt Q4DRD8); experiment: cryo-EM structure
[3] = target: glycosomal malate dehydrogenase (MDH, residues 1-323) of Trypanosoma cruzi (Trypanosoma cruzi) (UniProt Q4DRD8); experiment: cryo-EM structure; remark: listed apart in the source

Measured: binding

full length Pex5 (residues 1-666) of Trypanosoma cruzi (from UniProt Q4DPQ9) (receptor)
binds: all assays above

Results are given in words; binding and its absence hold for the method and conditions named. Binding can be weak; no strength is given.
